Paper doi:10.1101/2025.02.14.638307
Like-named read-outs stand apart in the source and are kept apart here. Results are given in words; binding and its absence hold for the method and conditions named. Binding seen in cells or lysates may run through a third protein. Some binding calls cover weakened binding; strength is not graded here.

Amino acid sequences for entries named in this document (tags omitted).
UniProt Q9JHI7: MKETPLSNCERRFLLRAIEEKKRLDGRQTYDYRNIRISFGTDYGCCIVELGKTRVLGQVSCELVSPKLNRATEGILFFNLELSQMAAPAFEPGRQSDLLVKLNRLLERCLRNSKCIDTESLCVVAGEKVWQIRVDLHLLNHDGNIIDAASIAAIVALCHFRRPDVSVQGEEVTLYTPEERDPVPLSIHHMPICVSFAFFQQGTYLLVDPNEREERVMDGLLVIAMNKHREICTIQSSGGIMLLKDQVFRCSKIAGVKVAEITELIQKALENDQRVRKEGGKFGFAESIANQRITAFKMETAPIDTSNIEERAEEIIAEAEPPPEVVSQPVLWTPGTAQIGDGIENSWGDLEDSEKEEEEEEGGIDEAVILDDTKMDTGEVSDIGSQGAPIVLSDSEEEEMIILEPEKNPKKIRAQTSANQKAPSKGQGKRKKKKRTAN
UniProt P83917: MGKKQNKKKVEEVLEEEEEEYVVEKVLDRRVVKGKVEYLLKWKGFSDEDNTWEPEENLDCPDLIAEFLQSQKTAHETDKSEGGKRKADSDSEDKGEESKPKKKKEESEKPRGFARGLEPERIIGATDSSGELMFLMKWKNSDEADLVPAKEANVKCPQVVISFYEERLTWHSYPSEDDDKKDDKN
UniProt P23198: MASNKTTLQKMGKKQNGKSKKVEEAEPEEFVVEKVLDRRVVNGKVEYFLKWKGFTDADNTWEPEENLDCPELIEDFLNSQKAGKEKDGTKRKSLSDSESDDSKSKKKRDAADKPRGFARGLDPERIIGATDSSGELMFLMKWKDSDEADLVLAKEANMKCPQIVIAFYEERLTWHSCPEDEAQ
UniProt Q61686: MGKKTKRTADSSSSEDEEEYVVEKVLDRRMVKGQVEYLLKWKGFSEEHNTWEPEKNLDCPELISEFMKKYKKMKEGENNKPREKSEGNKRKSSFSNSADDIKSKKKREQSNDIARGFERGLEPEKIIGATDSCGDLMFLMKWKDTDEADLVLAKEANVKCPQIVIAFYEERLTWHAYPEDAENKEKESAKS

Columns and labels:
Assay in all cases: co-IP
[1] = target: EXOSC9 (mouse (endogenous in BMEL)) (UniProt Q9JHI7)
[2] = target: T1, ZC3H18 (mouse (endogenous in BMEL)) (UniProt Q0P678)
T1 sequence: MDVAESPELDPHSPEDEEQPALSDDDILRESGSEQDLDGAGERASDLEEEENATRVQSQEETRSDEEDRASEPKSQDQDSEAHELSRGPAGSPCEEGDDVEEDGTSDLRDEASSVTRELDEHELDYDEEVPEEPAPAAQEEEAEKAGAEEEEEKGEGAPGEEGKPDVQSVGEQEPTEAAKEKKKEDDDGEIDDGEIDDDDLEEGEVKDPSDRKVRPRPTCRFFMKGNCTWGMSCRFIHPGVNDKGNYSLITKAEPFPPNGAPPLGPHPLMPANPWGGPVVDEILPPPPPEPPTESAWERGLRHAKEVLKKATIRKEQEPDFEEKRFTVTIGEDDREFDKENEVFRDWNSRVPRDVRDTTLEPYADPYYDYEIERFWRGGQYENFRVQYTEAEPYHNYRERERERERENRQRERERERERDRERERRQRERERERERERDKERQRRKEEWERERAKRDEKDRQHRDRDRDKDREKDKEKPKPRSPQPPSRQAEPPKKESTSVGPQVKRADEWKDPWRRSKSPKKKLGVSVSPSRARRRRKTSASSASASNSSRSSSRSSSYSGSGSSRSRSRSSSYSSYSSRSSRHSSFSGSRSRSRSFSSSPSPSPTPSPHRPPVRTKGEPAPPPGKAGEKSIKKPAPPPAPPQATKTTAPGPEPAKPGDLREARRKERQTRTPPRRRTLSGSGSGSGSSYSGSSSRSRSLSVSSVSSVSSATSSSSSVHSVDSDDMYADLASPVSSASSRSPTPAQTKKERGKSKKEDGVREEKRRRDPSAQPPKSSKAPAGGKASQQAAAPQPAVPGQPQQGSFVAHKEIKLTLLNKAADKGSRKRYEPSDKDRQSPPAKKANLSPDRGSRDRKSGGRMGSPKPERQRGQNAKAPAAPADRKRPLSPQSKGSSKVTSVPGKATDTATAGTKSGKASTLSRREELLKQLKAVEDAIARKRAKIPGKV

[3] = target: T2, MTR4 (mouse (endogenous in BMEL)) (UniProt Q9CZU3)
T2 sequence: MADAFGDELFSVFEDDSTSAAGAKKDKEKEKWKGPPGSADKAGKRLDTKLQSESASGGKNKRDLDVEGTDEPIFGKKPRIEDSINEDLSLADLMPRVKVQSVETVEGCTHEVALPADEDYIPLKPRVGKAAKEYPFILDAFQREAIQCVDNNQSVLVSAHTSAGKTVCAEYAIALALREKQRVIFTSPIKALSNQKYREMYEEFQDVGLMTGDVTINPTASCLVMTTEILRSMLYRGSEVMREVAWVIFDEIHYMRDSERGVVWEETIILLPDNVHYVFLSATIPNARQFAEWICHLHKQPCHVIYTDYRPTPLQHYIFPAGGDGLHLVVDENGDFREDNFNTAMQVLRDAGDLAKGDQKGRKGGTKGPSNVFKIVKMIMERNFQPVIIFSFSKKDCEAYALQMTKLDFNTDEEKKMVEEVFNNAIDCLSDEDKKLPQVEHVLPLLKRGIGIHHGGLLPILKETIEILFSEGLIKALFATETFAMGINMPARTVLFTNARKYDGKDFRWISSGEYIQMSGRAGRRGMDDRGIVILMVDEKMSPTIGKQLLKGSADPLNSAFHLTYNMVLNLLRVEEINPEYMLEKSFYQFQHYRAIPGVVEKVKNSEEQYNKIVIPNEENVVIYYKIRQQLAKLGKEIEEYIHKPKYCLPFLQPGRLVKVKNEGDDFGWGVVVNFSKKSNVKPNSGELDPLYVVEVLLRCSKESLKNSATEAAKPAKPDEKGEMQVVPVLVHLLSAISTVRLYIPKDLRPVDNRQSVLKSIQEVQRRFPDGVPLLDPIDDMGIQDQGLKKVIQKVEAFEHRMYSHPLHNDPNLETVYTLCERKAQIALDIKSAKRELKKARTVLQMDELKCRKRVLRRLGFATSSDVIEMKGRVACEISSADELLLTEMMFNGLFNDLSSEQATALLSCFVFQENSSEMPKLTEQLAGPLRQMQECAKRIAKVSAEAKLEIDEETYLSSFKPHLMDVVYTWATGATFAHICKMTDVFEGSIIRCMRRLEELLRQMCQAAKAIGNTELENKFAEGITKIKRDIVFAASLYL

[4] = target: T3, EXOSC10 (mouse (endogenous in BMEL)) (UniProt P56960)
T3 sequence: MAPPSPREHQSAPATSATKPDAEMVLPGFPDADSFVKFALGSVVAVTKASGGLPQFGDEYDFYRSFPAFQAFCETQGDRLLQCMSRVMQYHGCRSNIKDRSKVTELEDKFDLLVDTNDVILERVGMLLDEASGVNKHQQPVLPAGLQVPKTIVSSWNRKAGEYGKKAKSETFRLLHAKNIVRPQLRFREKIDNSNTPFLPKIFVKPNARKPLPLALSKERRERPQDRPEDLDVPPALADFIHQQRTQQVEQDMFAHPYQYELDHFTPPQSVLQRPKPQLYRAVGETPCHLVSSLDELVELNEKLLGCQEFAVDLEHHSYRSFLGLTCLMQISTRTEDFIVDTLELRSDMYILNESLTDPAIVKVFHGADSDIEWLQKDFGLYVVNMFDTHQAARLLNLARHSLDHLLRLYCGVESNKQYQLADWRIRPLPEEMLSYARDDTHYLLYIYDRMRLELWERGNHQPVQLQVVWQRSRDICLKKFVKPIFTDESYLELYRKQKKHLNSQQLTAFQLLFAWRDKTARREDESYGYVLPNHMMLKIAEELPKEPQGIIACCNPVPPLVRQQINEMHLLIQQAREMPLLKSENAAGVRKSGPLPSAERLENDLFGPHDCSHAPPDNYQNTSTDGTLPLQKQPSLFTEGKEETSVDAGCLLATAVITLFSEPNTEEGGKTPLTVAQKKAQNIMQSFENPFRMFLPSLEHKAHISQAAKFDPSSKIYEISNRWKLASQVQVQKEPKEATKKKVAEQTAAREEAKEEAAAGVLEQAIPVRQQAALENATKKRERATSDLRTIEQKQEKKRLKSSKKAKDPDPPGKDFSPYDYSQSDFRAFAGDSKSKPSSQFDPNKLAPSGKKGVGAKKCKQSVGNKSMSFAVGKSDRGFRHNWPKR

[5] = target: EXOSC9 (mouse (endogenous in BMEL)) (UniProt Q9JHI7); remark: listed apart in the source
[6] = target: T1, ZC3H18 (mouse (endogenous in BMEL)); remark: listed apart in the source

Measured: binding

HP1β (from UniProt P83917 1-185)
binds: [1] | [2] | [3]

HP1γ (from UniProt P23198 1-183)
binds: [4] | [1] | [2] | [3] | [5] | [6]

HP1α (from UniProt Q61686 1-191)
binds: [1] | [2] | [3]
